Data source: PubChem BioAssay AID1159579 (Peter MacCallum Cancer Centre, 2015)

Test: 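Follow-up screen seeking modulators of motility in lymphatic endothelial cells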 (follow-up of hits)
System: human dermal lymphatic endothelial cells
Knock-down reagent: single siRNA against human genes, 25 nM
Measured: 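High content images of wound closure area and cell nuclei counts, each the average of two wells, expressed against mock transfection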
Reading the numbers: migration relative to mock: higher = more migration into the scratch; mean nuclei count: higher = more cells remaining
Active means: 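a ratio of at most 0.6 or at least 1.3 marks altered migration and an active call; a mean nuclei count under 3300 forces an inactive call regardless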
Calls: active = migration changed (impaired or accelerated); inactive = no migration change, or too few cells
Here is an unselected part of about 2,000 reagents. 549 of them (27%) were called active. 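Some migration ratios are negative; siRNAs with too few cells are inactive whatever their migration ratio.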 Unmarked entries are inactive. Reagents against one gene are numbered here. Not all columns of the deposit are shown. Not stated in the record: the time to read-out.

AP2B1 (GeneID 163) #1 showed migration relative to mock 0.9; mean nuclei count 6836.
AP2B1 (GeneID 163) #2 scored migration relative to mock 0.79; mean nuclei count 7210.
AP2B1 (GeneID 163) #3 scored migration relative to mock 0.3 (active); mean nuclei count 4398.
AP2B1 (GeneID 163) #4 gave migration relative to mock 1.05; mean nuclei count 7053.
Knock-down of DSG1 (GeneID 1828) #1 gave: migration relative to mock 0.66; mean nuclei count 4608.
For DSG1 (GeneID 1828) #2 the deposit lists migration relative to mock 1.04; mean nuclei count 5197.
Depletion of DSG1 (GeneID 1828) #3 came out at: migration relative to mock -0.48 (active); mean nuclei count 3318.
With knock-down of DSG1 (GeneID 1828) #4, the screen gave migration relative to mock 0.92; mean nuclei count 4965.
After knock-down of SCGB1C1 (GeneID 147199) #1 the results were migration relative to mock 0.89; mean nuclei count 4704.
With knock-down of SCGB1C1 (GeneID 147199) #2 the results were migration relative to mock 0.99; mean nuclei count 5317.
SCGB1C1 (GeneID 147199) #3 showed migration relative to mock 0.12 (active); mean nuclei count 3866.
SCGB1C1 (GeneID 147199) #4 scored migration relative to mock 0.13 (active); mean nuclei count 4788.
For PLPP3 (GeneID 8613) #1, the values are migration relative to mock 0.8; mean nuclei count 6739.
With knock-down of PLPP3 (GeneID 8613) #2 the results were migration relative to mock 0.96; mean nuclei count 6368.
Against PLPP3 (GeneID 8613) #3, the entry reads migration relative to mock 0.24 (active); mean nuclei count 6990.
PLPP3 (GeneID 8613) #4 showed migration relative to mock 0.44 (active); mean nuclei count 6697.
Knock-down of PPP6R1 (GeneID 22870) #1 resulted in: migration relative to mock 0.32 (active); mean nuclei count 4440.
PPP6R1 (GeneID 22870) #2 scored migration relative to mock 0.95; mean nuclei count 6080.
Depletion of PPP6R1 (GeneID 22870) #3 came out at: migration relative to mock 0.92; mean nuclei count 4241.
Against PPP6R1 (GeneID 22870) #4, the values are migration relative to mock 0.2 (active); mean nuclei count 4242.
For PMEL (GeneID 6490) #1, the entry reads migration relative to mock 0.76; mean nuclei count 6268.
PMEL (GeneID 6490) #2 gave migration relative to mock 0.5 (active); mean nuclei count 6642.
With knock-down of PMEL (GeneID 6490) #3, the record shows migration relative to mock 0.82; mean nuclei count 7029.
After knock-down of PMEL (GeneID 6490) #4, the screen gave migration relative to mock 1; mean nuclei count 6755.

5 entries from above, sorted by “migration relative to mock”, descending:
PLPP3 (GeneID 8613) #2 | migration relative to mock: 0.96; mean nuclei count: 6368
PLPP3 (GeneID 8613) #1 | migration relative to mock: 0.8; mean nuclei count: 6739
PLPP3 (GeneID 8613) #4 | migration relative to mock: 0.44 (active); mean nuclei count: 6697
PPP6R1 (GeneID 22870) #1 | migration relative to mock: 0.32 (active); mean nuclei count: 4440
PLPP3 (GeneID 8613) #3 | migration relative to mock: 0.24 (active); mean nuclei count: 6990

Next entries follow.
For DGKE (GeneID 8526) #1, the values are migration relative to mock 1; mean nuclei count 6418.
With knock-down of DGKE (GeneID 8526) #2, the screen gave migration relative to mock 0.84; mean nuclei count 6636.
For DGKE (GeneID 8526) #3, the entry reads migration relative to mock 0.81; mean nuclei count 6377.
For DGKE (GeneID 8526) #4, the values are migration relative to mock -0.56; mean nuclei count 1956.
For S100A8 (GeneID 6279) #1 the deposit lists migration relative to mock 0.57 (active); mean nuclei count 5499.
S100A8 (GeneID 6279) #2 gave migration relative to mock 0.82; mean nuclei count 6826.
Silencing of S100A8 (GeneID 6279) #3 came out at: migration relative to mock 0.71; mean nuclei count 5910.
Silencing of S100A8 (GeneID 6279) #4 gave: migration relative to mock 0.9; mean nuclei count 5474.
For CORO2B (GeneID 10391) #1, the entry reads migration relative to mock 1; mean nuclei count 5034.
Knock-down of CORO2B (GeneID 10391) #2 gave: migration relative to mock 0.82; mean nuclei count 5005.
After knock-down of CORO2B (GeneID 10391) #3 the results were migration relative to mock 1.02; mean nuclei count 5933.
With knock-down of CORO2B (GeneID 10391) #4, the record shows migration relative to mock 0.86; mean nuclei count 5092.
